PubChem BioAssay AID1347075 (National Center for Advancing Translational Sciences (NCATS), 2019)
The campaign covered roughly 400,000 compounds. About 5,500 (1.4%) were called active. The inconclusive results got no clear call from the source; some entries with a clear call stand among them for comparison. Calls come from the whole dose curve; as a rule, active = well fitted cell-killing curve with a large enough effect; inconclusive = small, poorly fitted or top-dose-only effect, or effect the other way; inactive = flat fitted curve, though single readings scatter. Potencies of inconclusive entries are doubtful fits and often do not repeat.

test: qHTS assay for MDR1-selective chemotherapeutics: Primary screen using the parental adenocarcinoma cell KB-3-1; conditions: KB-3-1 viability, CellTiter-Glo ATP luminescence, 72 h; activity change, negative = cytotoxic: at 46.1 µM (top of the series); note: nearly all actives have a fitted effect of over 60% in size
Procedure, shortened: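 KB-3-1 cells, DMEM (no phenol red) + 10% FBS; compound by pin transfer, 72 h, 37 °C. Readout: CellTiter-Glo luminescence after 10 min. Data normalized, curve-fitted.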
% is set by controls: 0 for no effect and ±100 for the full control effect; potency is the fitted concentration of half-maximal effect.

Compound | Potency | activity change, negative = cytotoxic
Cc1cc([N+](=O)[O-])ccc1-c1ccc(C2Nc3ccccc3C(=O)N2O)o1 (centres undefined) | active: 23.1 µM | 
Nc1ccc(N2CCOCC2)c2nonc12 | inconclusive: 29.1 µM [cytotoxic, partial curve, poor fit] | 
N#Cc1ncn(-c2ccc(Oc3ccccc3)cc2)c1N | inconclusive: 18.4 µM [cytotoxic, single point] | 
COc1cccc(C(=O)Nc2nnc(-c3ccc(F)cc3)o2)c1 | inconclusive: 18.4 µM [cytotoxic, single point] | 
COc1ccc(C(=O)CSc2[nH]c(=O)cc(C(F)(F)F)c2C#N)cc1 | inconclusive: 0.82 µM [cytotoxic, full curve] | 
Cc1nc(NC(=O)CCl)sc1C(=O)N(C)C | inactive | 
Cc1cccc2c3c([nH]c12)C(=O)CC(C)(C)S3 | inactive | 
COc1ccc2c(CC(=O)Nc3ccc4nc(N5CCOCC5)sc4c3)coc2c1 | inconclusive: 29.1 µM [cytotoxic, single point] | 
CC(C)C[C@@H](C(=O)NC1CCN(Cc2ccccc2)CC1)N1C(=O)N2CCc3c([nH]c4ccccc34)[C@@]2(C)C1=O | inconclusive: 29.1 µM [cytotoxic, single point] | 
CC(NC(=O)C12CC3CC(CC(C3)C1)C2)C(=O)N/N=C/C1=C(N2CCOCC2)C(=C\c2cccc([N+](=O)[O-])c2)/CC1 (centres undefined) | inactive | 
Cc1cccc(C(=O)NCC(=O)N2CC=C(c3ccccc3)CC2)c1 | inconclusive: 18.4 µM [cytotoxic, single point] | 
Cc1ccc(S(=O)(=O)N2CCN(C(=O)CN3C(=O)CNC3=O)CC2)cc1 | inactive | 
CC(C)c1ccc(Cc2cn3cc(-c4cc5ccccc5oc4=O)nc3s2)cc1 | active: 0.58 µM | 
Cc1ccc(NC(=O)NCCOCCn2c(=O)oc3ccccc32)c(C)c1 | inactive | 
Cc1ccc(-c2cnc3c(Cl)c(C)nn3c2)cc1 | inconclusive: 29.1 µM [cytotoxic, single point] | 
O=C(CN(Cc1ccccc1)C(=O)c1cc2c(s1)CCC2)NCc1cccs1 | inconclusive: 20.6 µM [cytotoxic, single point] | 
CNS(=O)(=O)c1cccc(C(=O)OCCCC(=O)c2ccccc2)c1 | inconclusive: 4.61 µM [cytotoxic, full curve] | 
CCOC(=O)Cn1cc(C(=O)c2cccs2)c2ccccc21 | inactive | 
O=C(CSc1nncc(=O)[nH]1)Nc1cccc([N+](=O)[O-])c1 | inactive | 
CC(=O)Nc1ccc(-c2ccnc3c2CC(C)(C(=O)NCc2cccc(Cl)c2)O3)cc1 (centres undefined) | inconclusive: 29.1 µM [cytotoxic, single point] | 
COc1cc(CN(C(=O)COc2ccc(Cl)cc2)c2ccccn2)cc(OC)c1OC | inactive | 
CCN(CC)C(=O)Cn1nc(-c2ccc(Cl)cc2)c2ccccc2c1=O | inactive | 
CC(C)[C@H](NC(=O)c1cccc(CN(Cc2ccccc2)C(=O)c2ccccc2)c1)C(=O)O | inconclusive: 0.58 µM [cytotoxic, full curve] | 

Compound | Potency | activity change, negative = cytotoxic
CCc1nc2ccc(C(=O)Nc3cc(-c4ccccc4)ccc3OC)cn2c1N(CC)Cc1cccc(Br)c1 | inconclusive: 29.1 µM [cytotoxic, single point] | 
O=[N+]([O-])c1ccc(C=Nc2cccc3ccccc23)s1 | inconclusive: 23.1 µM [cytotoxic, single point] | 
COc1ccc(S(=O)(=O)NC(C)C(=O)Nc2ccccc2C(F)(F)F)cc1 (centres undefined) | inactive | 
O=C(c1ccco1)n1nc(-c2ccccc2)nc1NCc1ccccc1Cl | inactive | 
CCC(SC1=Nc2ccccc2C2=NC(CC(C)C)C(=O)N12)C(=O)Nc1ccc2c(c1)OCO2 (centres undefined) | inconclusive: 16.4 µM [cytotoxic, single point] | 
O=C(O)CCCCCN1C(=O)C2CCCCC2C1=O (centres undefined) |  | inconclusive: 3.19%
CCOC(=O)c1c(NC(=O)C(C)Sc2c[nH]c3ccccc23)sc2c1CCC2 (centres undefined) | inconclusive: 20.6 µM [cytotoxic, single point] | 
CCOC(=O)N1CCN(C(=O)c2ccc3c(c2)NC(=O)/C(=C\c2cccc(C)c2)S3)CC1 | inconclusive: 23.1 µM [cytotoxic, single point] | 
O=C(Nc1ccc(S(=O)(=O)Nc2cnc3ccccc3n2)cc1)c1ccc(Cl)c([N+](=O)[O-])c1 | inactive | 
Cc1nn(CC(=O)Nc2cccc(C(F)(F)F)c2)c(=O)c2cccn12 | inactive | 
COc1cc(/C=C(/C#N)c2ccccc2)ccc1Oc1ccc([N+](=O)[O-])cn1 | inactive | 
CC(C)c1ccc(NC(=O)c2ccc(Br)o2)cc1 | inactive | 
CCOC(=O)N(C)c1c(CC)nc2c(OCc3ccccc3C)cccn12 | inconclusive: 23.1 µM [cytotoxic, single point] | 
Cc1cc(C)cc(N(CC(=O)N2CCC(C)CC2)S(=O)(=O)c2ccccc2)c1 | inactive | 
O=C(CSc1nc2cc(Cl)c(Cl)cc2[nH]1)c1ccc2c(c1)OCO2 | active: 14.6 µM | 
COCCNC(=O)C[C@@H]1C[C@H]2c3cc(NC(=O)Nc4ccc(F)cc4)ccc3O[C@H]2[C@H](CO)O1 | inconclusive: 20.6 µM [rising, partial curve, poor fit] | 
CC(=O)OCCNc1cc(Sc2nc3ccccc3[nH]2)c2nonc2c1[N+](=O)[O-] |  | inconclusive: -76.4%
O=c1cc(-c2ccccc2)[nH]c2nc3ccccc3n12 | inconclusive: 18.4 µM [cytotoxic, single point] | 
CC(CSc1nnnn1-c1ccccc1)Cn1c(N2CCCC2)nc2c1c(=O)[nH]c(=O)n2C (centres undefined) | inactive | 
CCc1ccc(-c2cc(C)no2)cc1S(=O)(=O)Nc1ccc(Cl)cc1 | inconclusive: 29.1 µM [cytotoxic, single point] | 
COc1ccc(C(=O)NC(=S)NNC(=O)c2c(-c3ccccc3)noc2C)cc1 | inconclusive: 29.1 µM [cytotoxic, single point] | 
COc1cc(CNC2CCCCCCC2)cc(Cl)c1OC | inconclusive: 16.4 µM [cytotoxic, partial curve] | 
Cn1c(=O)c2sccc2n2c(CCCC(=O)N3CCCCC3)nnc12 | inactive | 

Compound | Potency | activity change, negative = cytotoxic
CN(C)c1ccc(NC(=O)CSC2=Nc3ccccc3C3=NC(CC(=O)NCc4ccccc4)C(=O)N23)cc1 (centres undefined) | inactive | 
CC(C)c1nnc(NC(=O)c2nc(S(=O)(=O)Cc3ccccc3F)ncc2Cl)s1 | inconclusive: 23.1 µM [cytotoxic, single point] | 
CCOC(=O)C1CCCN(C(=O)c2ccc3c(=O)n(Cc4ccccc4OC)c(=S)[nH]c3c2)C1 (centres undefined) | inconclusive: 18.4 µM [cytotoxic, single point] | 
CC1=NN(c2nc3ccccc3[nH]2)C(=O)C1Cc1ccccc1 (centres undefined) | inconclusive: 3.66 µM [cytotoxic, full curve, poor fit] | 
COc1ccc(C)cc1NC(=O)c1nn(-c2ccccc2)cc1OC | inconclusive: 29.1 µM [cytotoxic, single point] | 
COc1ccccc1Nc1c2c(nc3ccccc13)CCC2 | inconclusive: 29.1 µM [cytotoxic, single point] | 
O=C(NCC1CCCO1)c1csc(Nc2cccc3ccccc23)n1 (centres undefined) | inconclusive: 18.4 µM [cytotoxic, partial curve] | 
CC1=C(C(=O)NCc2ccc(Cl)cc2)C2(CCCCCC2)OC1=O | inactive | 
COC(=O)c1cc(C(=O)NCc2ccccc2)c(=O)[nH]c1C | inconclusive: 13 µM [cytotoxic, partial curve, poor fit] | 
COc1ccccc1Nc1nc(N)nc(CSC(=S)N2CCN(c3ccccc3)CC2)n1 | inactive | 
O=C(CSc1n[nH]c(-c2ccccn2)n1)Nc1cccc(Cl)c1 | inconclusive: 2.91 µM [cytotoxic, full curve] | 
COC(=O)NCC(c1ccco1)N1CCN(c2ccc(OC)cc2)CC1 (centres undefined) | inactive | 
CC1CCN(CCOCCOc2ccc(Br)cc2Cl)CC1 | inconclusive: 29.1 µM [cytotoxic, single point] | 
COc1ccc(CN(C(=O)Cc2c[nH]c3ccccc23)C(C(=O)NC2CCCCC2)c2ccc(C)o2)cc1 (centres undefined) | inconclusive: 35.5 µM [cytotoxic, single point] | 
CC1C(=O)N(Cc2cn(CCC3OCCO3)nn2)CCS(=O)(=O)N1Cc1ccc(-c2ccc(Cl)c(Cl)c2)cc1 (centres undefined) | inconclusive: 20.6 µM [cytotoxic, single point] | 
CCOC(=O)Cc1cc(=O)[nH]c(/N=C(/NC(=O)c2ccccc2)Nc2ccccc2C(F)(F)F)n1 | inconclusive: 29.1 µM [cytotoxic, single point] | 
CCOC(=O)c1sc(NC(=O)c2cc3nc(-c4ccc(Br)cc4)cc(C(F)(F)F)n3n2)c(C(=O)OCC)c1C | inconclusive: 23.1 µM [cytotoxic, single point] | 
CN(C(=O)c1cccc(NC(=O)Cc2ccc(NC(=O)C3CCCN(C(=O)CCc4ccccc4)C3)cc2)c1)C1CC1 (centres undefined) | inconclusive: 23.1 µM [cytotoxic, single point] | 
CC(=O)Nc1nonc1-c1nc2ccccc2n1CCC(C)C | inconclusive: 20.6 µM [cytotoxic, single point] | 
O=C1c2ccccc2C(=O)c2c(/C=C/N3CCCCC3)ccnc21 | active: 7.31 µM | 
O=C(Cc1cccs1)N(Cc1cccs1)C1(C(=O)NC2CCCC2)CCCCC1 | inconclusive: 18.4 µM [cytotoxic, single point] | 
COc1cc(CC(=O)Nc2cccc(C(F)(F)F)c2)cc(OC)c1OC | inconclusive: 20.6 µM [cytotoxic, partial curve, poor fit] | 
O=C(CCN1C(=O)C2C3CCC(C3)C2C1=O)Nc1cccc(Cl)c1 (centres undefined) | inconclusive: 1.16 µM [rising, full curve, poor fit] | 

Some of the entries so far, comma-delimited:
Compound,Potency,"activity change, negative = cytotoxic"
CCOC(=O)C1CCCN(C(=O)c2ccc3c(=O)n(Cc4ccccc4OC)c(=S)[nH]c3c2)C1 (centres undefined),"inconclusive: 18.4 µM [cytotoxic, single point]",
COc1ccccc1Nc1c2c(nc3ccccc13)CCC2,"inconclusive: 29.1 µM [cytotoxic, single point]",
CC1=C(C(=O)NCc2ccc(Cl)cc2)C2(CCCCCC2)OC1=O,inactive,
CCOC(=O)Cc1cc(=O)[nH]c(/N=C(/NC(=O)c2ccccc2)Nc2ccccc2C(F)(F)F)n1,"inconclusive: 29.1 µM [cytotoxic, single point]",
CC(=O)Nc1nonc1-c1nc2ccccc2n1CCC(C)C,"inconclusive: 20.6 µM [cytotoxic, single point]",
